Results on one molecule are retold here after PMC2031890.

Sequences of proteins named here, by UniProt entry; tags and fusion partners are left off. A change or cut given only in a name is not applied to a line headed by its entry.
UniProt Q9NB71: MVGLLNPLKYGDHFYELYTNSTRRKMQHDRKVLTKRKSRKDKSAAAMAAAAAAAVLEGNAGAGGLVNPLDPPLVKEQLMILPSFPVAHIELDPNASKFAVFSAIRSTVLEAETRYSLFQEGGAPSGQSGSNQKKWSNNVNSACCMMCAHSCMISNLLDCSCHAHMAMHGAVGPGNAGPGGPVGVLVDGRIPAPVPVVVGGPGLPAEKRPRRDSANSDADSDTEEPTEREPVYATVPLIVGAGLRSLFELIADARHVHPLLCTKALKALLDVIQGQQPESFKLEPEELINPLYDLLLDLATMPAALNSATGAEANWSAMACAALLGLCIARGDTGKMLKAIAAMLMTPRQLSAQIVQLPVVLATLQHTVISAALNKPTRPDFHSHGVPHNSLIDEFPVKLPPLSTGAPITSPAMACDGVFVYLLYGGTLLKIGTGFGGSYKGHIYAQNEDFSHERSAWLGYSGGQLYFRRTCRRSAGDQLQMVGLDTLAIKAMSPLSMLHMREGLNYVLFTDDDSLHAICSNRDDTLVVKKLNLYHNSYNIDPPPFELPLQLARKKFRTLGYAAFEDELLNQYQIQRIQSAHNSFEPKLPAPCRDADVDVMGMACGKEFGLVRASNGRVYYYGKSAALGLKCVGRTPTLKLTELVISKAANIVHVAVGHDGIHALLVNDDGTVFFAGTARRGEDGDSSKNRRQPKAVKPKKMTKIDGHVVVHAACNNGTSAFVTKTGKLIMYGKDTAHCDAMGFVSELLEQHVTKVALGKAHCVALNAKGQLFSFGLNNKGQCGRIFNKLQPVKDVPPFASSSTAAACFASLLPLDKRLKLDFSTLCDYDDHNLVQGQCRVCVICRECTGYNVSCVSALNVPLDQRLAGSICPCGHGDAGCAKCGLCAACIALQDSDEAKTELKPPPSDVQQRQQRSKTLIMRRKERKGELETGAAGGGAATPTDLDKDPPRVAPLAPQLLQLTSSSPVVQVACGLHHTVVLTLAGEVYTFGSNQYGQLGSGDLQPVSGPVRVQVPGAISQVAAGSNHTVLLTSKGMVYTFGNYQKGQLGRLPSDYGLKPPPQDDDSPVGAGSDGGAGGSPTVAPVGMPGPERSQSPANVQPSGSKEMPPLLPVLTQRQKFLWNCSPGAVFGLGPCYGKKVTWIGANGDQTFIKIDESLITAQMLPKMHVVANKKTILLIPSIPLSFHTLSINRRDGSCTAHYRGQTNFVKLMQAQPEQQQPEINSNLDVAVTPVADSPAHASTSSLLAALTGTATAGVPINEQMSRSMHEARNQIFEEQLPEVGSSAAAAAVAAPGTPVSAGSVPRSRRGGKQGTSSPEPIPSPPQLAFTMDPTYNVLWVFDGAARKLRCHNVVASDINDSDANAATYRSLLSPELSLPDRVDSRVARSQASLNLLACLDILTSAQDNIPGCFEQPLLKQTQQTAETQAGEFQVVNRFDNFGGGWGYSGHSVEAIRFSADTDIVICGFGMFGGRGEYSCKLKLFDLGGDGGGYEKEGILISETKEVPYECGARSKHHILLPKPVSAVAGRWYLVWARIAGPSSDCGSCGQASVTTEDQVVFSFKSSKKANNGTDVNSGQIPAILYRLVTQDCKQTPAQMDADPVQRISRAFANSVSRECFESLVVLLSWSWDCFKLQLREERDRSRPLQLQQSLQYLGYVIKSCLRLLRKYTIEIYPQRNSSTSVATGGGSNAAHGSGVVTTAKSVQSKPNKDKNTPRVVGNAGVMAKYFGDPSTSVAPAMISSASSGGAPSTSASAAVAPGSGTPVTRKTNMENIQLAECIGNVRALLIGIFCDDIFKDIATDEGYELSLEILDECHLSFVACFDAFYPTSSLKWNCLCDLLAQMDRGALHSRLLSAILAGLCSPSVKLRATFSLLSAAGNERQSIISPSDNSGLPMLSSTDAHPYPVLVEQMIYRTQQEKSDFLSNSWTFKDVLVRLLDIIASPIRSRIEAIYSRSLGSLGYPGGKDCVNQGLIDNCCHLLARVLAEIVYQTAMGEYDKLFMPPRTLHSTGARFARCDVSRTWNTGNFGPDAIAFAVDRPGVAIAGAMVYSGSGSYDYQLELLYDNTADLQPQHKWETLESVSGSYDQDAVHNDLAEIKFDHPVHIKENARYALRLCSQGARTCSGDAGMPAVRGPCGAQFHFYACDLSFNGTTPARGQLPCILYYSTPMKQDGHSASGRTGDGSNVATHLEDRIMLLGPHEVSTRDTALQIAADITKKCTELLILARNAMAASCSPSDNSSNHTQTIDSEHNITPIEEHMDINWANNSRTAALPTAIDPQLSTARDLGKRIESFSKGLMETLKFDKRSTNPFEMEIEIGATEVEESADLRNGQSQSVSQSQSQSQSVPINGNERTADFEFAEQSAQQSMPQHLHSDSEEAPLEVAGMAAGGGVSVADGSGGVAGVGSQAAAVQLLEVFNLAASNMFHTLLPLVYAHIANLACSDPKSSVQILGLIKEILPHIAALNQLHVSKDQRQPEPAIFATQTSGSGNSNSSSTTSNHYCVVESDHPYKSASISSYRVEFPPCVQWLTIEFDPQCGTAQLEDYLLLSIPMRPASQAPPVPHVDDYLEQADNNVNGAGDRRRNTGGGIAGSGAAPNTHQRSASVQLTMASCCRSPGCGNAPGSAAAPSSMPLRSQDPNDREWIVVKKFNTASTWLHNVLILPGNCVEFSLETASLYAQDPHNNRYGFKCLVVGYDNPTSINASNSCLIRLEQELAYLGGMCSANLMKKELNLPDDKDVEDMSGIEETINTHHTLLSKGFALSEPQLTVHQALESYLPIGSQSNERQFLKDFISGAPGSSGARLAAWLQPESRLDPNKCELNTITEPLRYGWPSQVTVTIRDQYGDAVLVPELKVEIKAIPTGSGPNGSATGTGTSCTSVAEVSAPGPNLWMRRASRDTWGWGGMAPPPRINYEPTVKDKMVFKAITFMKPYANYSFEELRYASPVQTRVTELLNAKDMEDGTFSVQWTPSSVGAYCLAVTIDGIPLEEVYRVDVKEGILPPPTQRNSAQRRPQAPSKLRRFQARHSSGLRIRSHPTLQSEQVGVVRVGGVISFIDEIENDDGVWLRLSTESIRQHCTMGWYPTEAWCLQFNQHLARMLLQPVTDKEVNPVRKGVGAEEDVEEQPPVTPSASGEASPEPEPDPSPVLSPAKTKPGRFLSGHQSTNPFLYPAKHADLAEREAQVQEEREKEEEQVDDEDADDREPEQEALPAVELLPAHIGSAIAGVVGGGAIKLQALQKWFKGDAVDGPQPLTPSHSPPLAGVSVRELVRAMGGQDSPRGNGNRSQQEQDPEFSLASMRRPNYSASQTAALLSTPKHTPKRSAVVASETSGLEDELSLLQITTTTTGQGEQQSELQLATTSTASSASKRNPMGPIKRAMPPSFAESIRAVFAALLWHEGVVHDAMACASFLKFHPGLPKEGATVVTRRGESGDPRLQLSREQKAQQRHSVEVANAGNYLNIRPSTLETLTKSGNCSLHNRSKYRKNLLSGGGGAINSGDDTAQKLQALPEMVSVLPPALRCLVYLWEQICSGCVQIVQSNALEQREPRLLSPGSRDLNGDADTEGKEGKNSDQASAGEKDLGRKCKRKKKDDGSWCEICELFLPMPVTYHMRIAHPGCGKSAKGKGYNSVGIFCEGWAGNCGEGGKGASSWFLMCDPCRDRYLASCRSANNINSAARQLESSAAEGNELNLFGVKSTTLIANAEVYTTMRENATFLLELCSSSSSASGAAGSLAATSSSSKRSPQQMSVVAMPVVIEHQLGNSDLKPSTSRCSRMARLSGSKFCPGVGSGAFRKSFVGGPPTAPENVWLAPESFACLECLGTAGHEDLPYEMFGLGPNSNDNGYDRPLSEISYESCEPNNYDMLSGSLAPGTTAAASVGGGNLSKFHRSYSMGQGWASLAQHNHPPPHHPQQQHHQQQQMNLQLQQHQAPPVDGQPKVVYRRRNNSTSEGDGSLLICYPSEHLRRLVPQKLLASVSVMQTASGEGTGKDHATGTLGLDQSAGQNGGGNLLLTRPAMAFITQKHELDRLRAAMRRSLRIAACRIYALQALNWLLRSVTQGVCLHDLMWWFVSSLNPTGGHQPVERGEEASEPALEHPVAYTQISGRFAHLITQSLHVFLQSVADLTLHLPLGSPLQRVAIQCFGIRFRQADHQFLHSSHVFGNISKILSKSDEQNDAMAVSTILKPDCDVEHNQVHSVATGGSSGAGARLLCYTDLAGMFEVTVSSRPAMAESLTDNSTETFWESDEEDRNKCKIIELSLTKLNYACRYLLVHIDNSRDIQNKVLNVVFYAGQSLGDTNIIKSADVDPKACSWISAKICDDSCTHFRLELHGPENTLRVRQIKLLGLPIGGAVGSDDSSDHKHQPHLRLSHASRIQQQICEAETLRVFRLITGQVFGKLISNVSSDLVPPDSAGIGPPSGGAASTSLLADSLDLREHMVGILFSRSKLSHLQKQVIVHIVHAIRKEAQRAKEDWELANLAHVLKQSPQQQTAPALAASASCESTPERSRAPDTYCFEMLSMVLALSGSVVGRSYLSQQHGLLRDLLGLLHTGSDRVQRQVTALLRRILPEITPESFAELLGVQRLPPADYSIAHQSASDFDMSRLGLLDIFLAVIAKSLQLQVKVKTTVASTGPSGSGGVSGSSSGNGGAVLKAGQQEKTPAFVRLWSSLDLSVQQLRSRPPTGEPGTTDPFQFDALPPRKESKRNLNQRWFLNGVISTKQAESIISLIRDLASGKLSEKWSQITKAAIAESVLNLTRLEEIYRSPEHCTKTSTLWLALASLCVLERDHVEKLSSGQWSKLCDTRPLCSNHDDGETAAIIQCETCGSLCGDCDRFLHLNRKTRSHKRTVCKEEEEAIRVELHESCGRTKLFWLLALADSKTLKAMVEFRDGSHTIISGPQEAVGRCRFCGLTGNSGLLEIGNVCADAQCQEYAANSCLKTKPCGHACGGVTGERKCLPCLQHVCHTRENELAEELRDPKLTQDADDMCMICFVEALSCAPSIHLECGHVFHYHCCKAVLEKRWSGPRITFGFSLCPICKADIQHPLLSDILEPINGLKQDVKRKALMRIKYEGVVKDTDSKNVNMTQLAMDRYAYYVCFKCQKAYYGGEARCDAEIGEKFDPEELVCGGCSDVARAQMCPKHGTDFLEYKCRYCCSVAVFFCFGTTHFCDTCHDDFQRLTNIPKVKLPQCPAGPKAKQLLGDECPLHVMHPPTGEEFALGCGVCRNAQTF

Results are given in words; binding and its absence hold for the method and conditions named. In cells and extracts the contact can be indirect. Here binding means that the protein was enriched with, or labelled near, the bait; the list need not be complete.

This assay addresses TAP-tagged HighwireΔRING (Drosophila) (UniProt Q9NB71). Kind of assay: affinity purification with mass spectrometry; tandem affinity purification of TAP-HiwΔRING from adult fly head homogenate at 4°C (50 mM Tris-HCl pH 7.5, 125 mM NaCl, 0.7% NP40); eluate analysed by SDS-PAGE bands + LC-MS/MS and directly by LC-MS/MS.

B1: DFsn (CG4643), endogenous (protein, UniProt Q9V6L9 1-255)
chain: MVDPVAALCNYNVLEVIFSYLELDDLSHCSQVCKSWYHFLNDENSDVWRWHCLNKLPKESLKSDLLASVSTYKTKLRAYFHAWSPNDCSRNVYIKPNGFTLHRNPVAQSTDAARGKIGFRHGRHTWEVIWEGPLGTVAVIGISTKEAALQCHGYVALLGSDDQSWGWNLVENHLLHNGDMQGSYPLLNNAPKYQVGERIRVILDCEDNTLSFEKNYEFLGVAFRGLPDKKLYPTVSAVYGNTEVSMVYLGTPLDG
For B1, the binding result is reported as “binds”.
